Results are given in words; binding and its absence hold for the method and conditions named. For part of these data: Binding seen in cells or lysates may run through a third protein. Some results given as binding are weak or reduced against the parent protein; the word gives no strength. Where a sequence is shown, tags or fusion partners need not be part of it.
Experiments:
[1] = molecular target: T1, ANXA7-monomericRFP (annexin A7 with C-terminal monomeric RFP tag) (human) (UniProt P20073); experiment: co-IP; lysates of MCF7-p95ErbB2 cells overexpressing ANXA7-mRFP or ANXA7-tGFP, exposed to scrape injury; IP with tGFP antibody on protein A agarose or RFP-Trap agarose, overnight at 4 °C; lysis buffer 50 mM Tris-HCl pH 7.4, 150 mM NaCl, 0.5% NP40, 1 mM EDTA; blot with ANXA7 and ALG-2 antibodies
T1 sequence: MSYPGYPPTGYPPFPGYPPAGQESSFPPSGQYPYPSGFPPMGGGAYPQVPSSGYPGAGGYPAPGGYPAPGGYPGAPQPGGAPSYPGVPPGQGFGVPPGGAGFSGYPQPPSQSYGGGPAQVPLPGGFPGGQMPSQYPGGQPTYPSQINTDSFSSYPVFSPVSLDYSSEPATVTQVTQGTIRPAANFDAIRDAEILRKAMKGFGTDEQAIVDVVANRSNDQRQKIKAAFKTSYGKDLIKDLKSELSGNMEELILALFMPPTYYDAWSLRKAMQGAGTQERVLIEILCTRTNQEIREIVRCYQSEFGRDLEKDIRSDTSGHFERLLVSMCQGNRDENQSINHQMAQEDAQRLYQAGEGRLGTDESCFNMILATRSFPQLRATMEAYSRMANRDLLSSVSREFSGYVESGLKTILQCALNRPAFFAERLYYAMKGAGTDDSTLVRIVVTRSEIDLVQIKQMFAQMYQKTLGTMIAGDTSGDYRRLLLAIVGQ

Amino acid sequences for entries named in this document (tags omitted).
UniProt O75340: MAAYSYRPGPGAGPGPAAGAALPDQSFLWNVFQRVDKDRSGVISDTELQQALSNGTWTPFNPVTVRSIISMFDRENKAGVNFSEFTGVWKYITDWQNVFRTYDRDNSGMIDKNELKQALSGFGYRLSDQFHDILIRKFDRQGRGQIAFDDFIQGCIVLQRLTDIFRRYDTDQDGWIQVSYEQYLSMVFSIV

[2] = molecular target: T2, ANXA7-turboGFP (annexin A7 with C-terminal turbo-GFP tag) (human) (UniProt P20073); experiment: as above
T2 sequence: T1 sequence

[3] = molecular target: T3, recombinant ANXA7 (without GFP) (human) (UniProt P20073); experiment: recruitment to supported lipid membrane patches (time-lapse fluorescence microscopy); POPC/POPS 9:1 membrane patches with free edges on mica; 50 mM TRIS, 100 mM NaCl, 2 mM CaCl2, pH 7.4, 22 °C; 100 pmole of ANXA7 and ALG-2 added; ALG-2-GFP imaged; both purified
T3 sequence: T1 sequence

Row | Substance | binding [1] | binding [2] | binding [3]
1 | apoptosis-linked gene-2 (ALG-2), endogenous (from UniProt O75340 1-191) | binds | binds | 
2 | recombinant ALG-2-GFP (from UniProt O75340 1-191) |  |  | binds

— publication PMC6491720
